Measurements from PubChem BioAssay AID504467 (National Center for Advancing Translational Sciences (NCATS), 2011).
The campaign covered roughly 330,000 compounds. About 7,700 (2.3%) were called active. The shares of active, inactive and inconclusive entries below differ from those in the screen. Calls follow the shape of the dose curve; as a rule, active = well fitted inhibition curve with a large enough effect; inconclusive = small, poorly fitted or top-dose-only effect, or effect the other way; inactive = flat fitted curve, though single readings scatter. Where the call is inconclusive, the potency comes from a doubtful curve fit.
Potency is read from the fitted curve at half-maximal effect.

Assay: qHTS screen for small molecules that inhibit ELG1-dependent DNA repair in human embryonic kidney (HEK293T) cells expressing luciferase-tagged ELG1; also: nearly all actives have a fitted effect of over 55% in size
Conditions: HEK293T ELG1-luciferase reporter, luminescence, 16 h, DNA damage induced by 5-fluorouridine; series mostly up to 46.1 µM
In short: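 Quantitative HTS, concentration-response format. 2,000 cells/well co-treated with 5-fluorouridine and compound, 16 hr in 5% CO2 at 37 °C; ONE-Glo luminescence read after 30 min.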
With Nc1nn(-c2ccccc2)c2ccc([N+](=O)[O-])cc12 the Potency was inconclusive: 16.4 µM [activator, partial curve]. In the case of CCCCCCn1c(=O)c(-c2ccccc2)c(O)c2ccccc21, the Potency is reported as “inactive”. With COc1ccc(NS(=O)(=O)c2ccc(-c3coc(C)n3)cc2)cc1OC the Potency was active: 0.411 µM. In the case of COc1ccc(NC(=O)COC(=O)C2CCN(C(=O)c3ccc(Cl)cc3)CC2)c([N+](=O)[O-])c1, the Potency is reported as inconclusive: 16.4 µM [activator, partial curve, poor fit]. In the case of CN(C(=O)/C=C/c1ccc2c(c1)OCO2)c1ccccc1, the Potency is reported as inconclusive: 29.1 µM [activator, single point]. For Cc1onc(-c2c(Cl)cccc2Cl)c1C(=O)NN1CCCCCC1, the Potency was inconclusive: 32.6 µM [inhibitor, partial curve, poor fit]. In the case of Cc1ccc(-c2cc(C(=O)OCC(=O)N(C)c3c(N)n(Cc4ccccc4)c(=O)[nH]c3=O)c3ccccc3n2)o1, the Potency is reported as inconclusive: 23.1 µM [activator, partial curve]. With CCNC(=O)Oc1ccc(-c2csnn2)cc1 the Potency was “inactive”. With N#C/C(C(=O)Oc1ccccc1)=C1\C=Cc2ccccc2N1 the Potency was inconclusive: 15.8 µM [activator, partial curve, poor fit]. In the case of COc1ccc(S(=O)(=O)N2CCN(c3nc(-c4cccnc4)nc4ccccc34)CC2)cc1, the Potency is reported as inconclusive: 8.2 µM [inhibitor, partial curve]. With CCOC(=O)c1sc(NC(=O)CSc2nccn2C)nc1C the Potency was inconclusive: 16.4 µM [activator, partial curve]. In the case of CC(C)N(C(=O)CSc1nnc(C2CC2)n1C1CC1)c1ccccc1, the Potency is reported as “inactive”. In the case of CC(c1ccco1)N(C(=O)c1ccc(Cl)c([N+](=O)[O-])c1)c1ccccn1 (stereo not given), the Potency is reported as “inactive”. With Cc1ccc(-n2nc3ccc(N)cc3n2)cc1 the Potency was inconclusive: 2.06 µM [activator, full curve]. With Cc1nnc(SCC(=O)Nc2nccs2)[nH]c1=O the Potency was “inactive”. For CC(=O)Nc1ccc(/C=C/c2nc3ccccc3[nH]c2=O)cc1, the Potency was inconclusive: 11.6 µM [activator, partial curve]. In the case of C/C(=C\C(=O)O)C(=O)Nc1nccs1, the Potency is reported as “inactive”. With Cc1ccc(OCCn2c(C)nc3ccccc32)cc1 the Potency was “inactive”. For CCNC(=O)COC(=O)c1cc(C)nc2ccccc12, the Potency was “inactive”. In the case of O=C(CN1CC(c2ccccc2)CC1=O)OCc1ccccc1F (stereo not given), the Potency is reported as inconclusive: 23.1 µM [activator, partial curve]. With Cc1onc(-c2ccccc2)c1C(=O)Nc1nc(-c2cc(F)ccc2F)cs1 the Potency was inconclusive: 18.4 µM [activator, partial curve]. With CC(C)(C)OC(=O)C(Cl)(C(=O)OC(C)(C)C)c1ccc2nnnn2n1 the Potency was inconclusive: 18.3 µM [activator, single point]. For Cc1ccc(-c2noc(CN3CCC(C(N)=O)CC3)n2)cc1, the Potency was inconclusive: 23.1 µM [activator, partial curve]. In the case of CCCCOc1ccccc1NC(=O)C=C(C)C, the Potency is reported as “inactive”. With O=C(N/N=C\c1ccc([N+](=O)[O-])s1)C1COc2ccccc2O1 (stereo not given) the Potency was inconclusive: 18.3 µM [inhibitor, single point]. In the case of Cc1ccn2c(c1)nc(=S)n2C(=O)c1ccco1, the Potency is reported as inconclusive: 4.11 µM [activator, partial curve]. In the case of CC(=O)Nc1ccc(S(=O)(=O)N(C)CC(=O)OC2CCCCC2=O)cc1 (stereo not given), the Potency is reported as “inactive”. In the case of CC1C=CCC2C(=O)N(c3cccc(C(=O)Nc4ccc(F)cc4)c3)C(=O)C12 (stereo not given), the Potency is reported as “inactive”. In the case of CCC(CO)Oc1cc(NC(=O)c2ccccc2)c2ncn(C(C)C)c2c1 (stereo not given), the Potency is reported as inconclusive: 13 µM [inhibitor, partial curve]. In the case of N#C/C(=C\c1ccc(Sc2ccc(Cl)cc2)o1)c1nc2ccccc2[nH]1, the Potency is reported as inconclusive: 11.6 µM [inhibitor, partial curve]. For O=C(OCC#CCSc1nc2ccccc2o1)c1cc2ccccc2o1, the Potency was inconclusive: 20.6 µM [activator, single point]. For Cc1ccc(S(=O)(=O)N2CCC(=O)N(CCOCc3ccc(Cl)cc3)CC2)cc1, the Potency was “inactive”. In the case of O=C(Cn1c(=O)oc2cc(S(=O)(=O)N3CCCC3)ccc21)N1CCc2ccccc2C1, the Potency is reported as inconclusive: 29.1 µM [inhibitor, single point]. With C[C@@H]1CN([C@@H](C)CO)C(=O)c2cc(NS(=O)(=O)c3cccs3)ccc2O[C@H]1CN(C)Cc1ccc(C(F)(F)F)cc1 the Potency was active: 16.4 µM. With COc1ccc(NC(=O)c2ccc3ncsc3c2)c2ccccc12 the Potency was “inactive”. For CCOC(=O)C(=O)Nc1nc(-c2ccc3c(c2)CCN3C(=O)C2CC2)c(C)s1, the Potency was inconclusive: 29.1 µM [activator, single point]. In the case of Cc1cccc(N(C(=O)CNC(=O)c2cccs2)C(C(=O)NC2CCCC2)c2cccnc2)c1 (stereo not given), the Potency is reported as “inactive”. In the case of O=C1S/C(=C/c2ccccc2F)C(=O)N1CCN=C1NS(=O)(=O)c2ccccc21, the Potency is reported as inconclusive: 23.1 µM [inhibitor, partial curve]. With CCOc1ncccc1C(=O)Nc1cc(S(=O)(=O)N2CCOCC2)ccc1OCC(F)(F)F the Potency was inconclusive: 8.2 µM [inhibitor, partial curve]. With Cc1cccc(N2CCN(C(=O)c3ccc(CS(=O)(=O)c4ccccc4C)o3)CC2C)c1 (stereo not given) the Potency was active: 9.2 µM. With Cn1cnc(C(=O)NCc2ccc(CNC(=O)OC(C)(C)C)cc2)c1C(=O)NCc1ccc(CNC(=O)OC(C)(C)C)cc1 the Potency was inconclusive: 7.3 µM [inhibitor, partial curve]. For COc1ccc(NC(=O)COc2ccc(C(=O)c3ccc(F)cc3)cc2)cc1S(N)(=O)=O, the Potency was inconclusive: 14.6 µM [inhibitor, partial curve]. For COC(=O)c1ccc(-c2ccc(Cl)cc2)nc1C, the Potency was inconclusive: 6.51 µM [activator, partial curve]. In the case of C=CCn1cccc(C(=O)Nc2ccc(SC)cc2)c1=O, the Potency is reported as inconclusive: 5.17 µM [activator, full curve]. For N#Cc1ccc(CN2CCN(C(=O)c3ccc(S(=O)(=O)NCc4ccco4)cc3)CC2)cc1, the Potency was inconclusive: 16.4 µM [inhibitor, partial curve, poor fit].
